Test results published in article PMC3735459.
No constants are given. Whether binding was seen depends on the method and setting. Binding seen in cells or lysates may run through a third protein. Binding calls can cover weak binding; strength is not graded here.

Experiments:
[1] = biological target: T1, Hippo (Hpo), transfected (Drosophila melanogaster) (UniProt Q8T0S6); assay: co-IP; S2 cells co-transfected with HA-tagged full-length or truncated Par-1 and Hpo, Sav, Wts or Mats; lysates immunoprecipitated, Western blot (Figures 5A-5B, S4B)
T1 sequence: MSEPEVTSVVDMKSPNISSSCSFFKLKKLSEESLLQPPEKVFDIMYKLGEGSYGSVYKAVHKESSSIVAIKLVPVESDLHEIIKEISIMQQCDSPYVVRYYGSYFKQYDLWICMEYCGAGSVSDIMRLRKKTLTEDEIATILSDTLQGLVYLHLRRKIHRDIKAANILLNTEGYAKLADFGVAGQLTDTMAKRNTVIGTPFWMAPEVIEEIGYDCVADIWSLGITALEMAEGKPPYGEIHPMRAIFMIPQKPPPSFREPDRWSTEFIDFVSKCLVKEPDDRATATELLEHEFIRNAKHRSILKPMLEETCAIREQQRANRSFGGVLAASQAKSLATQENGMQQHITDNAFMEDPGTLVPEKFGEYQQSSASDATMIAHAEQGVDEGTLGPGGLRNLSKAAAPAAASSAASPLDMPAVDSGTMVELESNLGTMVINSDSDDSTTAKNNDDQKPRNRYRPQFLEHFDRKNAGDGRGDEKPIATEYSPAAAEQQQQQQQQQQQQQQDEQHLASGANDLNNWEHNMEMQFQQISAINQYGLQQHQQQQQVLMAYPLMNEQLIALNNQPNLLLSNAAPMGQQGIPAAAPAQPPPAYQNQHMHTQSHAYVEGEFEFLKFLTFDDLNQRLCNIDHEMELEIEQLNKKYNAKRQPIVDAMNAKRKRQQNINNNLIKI

[2] = biological target: T2, Salvador (Sav), transfected (Drosophila melanogaster) (UniProt Q9VCR6); assay: as above
T2 sequence: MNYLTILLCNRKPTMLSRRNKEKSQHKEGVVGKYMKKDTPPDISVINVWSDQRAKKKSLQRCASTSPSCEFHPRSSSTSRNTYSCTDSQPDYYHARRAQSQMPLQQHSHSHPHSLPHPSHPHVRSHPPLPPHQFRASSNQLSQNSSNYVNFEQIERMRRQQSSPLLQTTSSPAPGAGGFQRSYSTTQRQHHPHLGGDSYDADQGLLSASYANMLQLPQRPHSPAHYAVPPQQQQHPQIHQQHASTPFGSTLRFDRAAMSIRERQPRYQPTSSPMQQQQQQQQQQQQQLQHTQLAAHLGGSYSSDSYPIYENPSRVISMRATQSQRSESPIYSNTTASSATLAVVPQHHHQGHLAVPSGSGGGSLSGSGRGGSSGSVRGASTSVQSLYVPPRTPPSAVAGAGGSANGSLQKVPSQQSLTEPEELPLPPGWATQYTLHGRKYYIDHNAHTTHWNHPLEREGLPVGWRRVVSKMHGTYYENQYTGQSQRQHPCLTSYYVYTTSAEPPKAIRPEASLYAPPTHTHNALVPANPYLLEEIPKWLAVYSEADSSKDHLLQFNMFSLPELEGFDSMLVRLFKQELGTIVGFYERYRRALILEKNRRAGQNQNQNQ

binding [1]	binding [2]	Substance
binds weakly	binds weakly	HA-tagged full-length Par-1 (Par-1-N1S) (from UniProt A1ZBL6)
binds weakly	binds weakly	HA-tagged C-terminal fragment of Par-1 (Par-1-C) (Drosophila melanogaster) (domain or fragment)
binds	binds	HA-tagged N-terminal fragment of Par-1 (Par-1-N) (Drosophila melanogaster) (domain or fragment)
